# The supplement of paper PMC12889115
# This is one part of the list. These are raw signals, not scaled to a control.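 In the initial screen, polymyxin B was used at a concentration that permeabilizes Salmonella's outer membrane but not its inner membrane. Maximum growth was set by DMSO wells with or without polymyxin B. Since plates varied, data were ranked per plate, and compounds giving the lowest OD600 advanced as hits.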
# System: Salmonella enterica serovar Typhimurium SL1344
# Test: bacterial growth OD600 after 18 h with compound and polymyxin B; higher = more bacterial growth (less inhibition)
# Conditions: 50 µM, Mueller-Hinton broth
SMILES,bacterial growth OD600 (polymyxin B 1 µg/mL),bacterial growth OD600 (polymyxin B 0.75 µg/mL)
CCN(CC1CCN(C2CCN(C)CC2)CC1)C(=O)c1ccc(-c2ccccc2)cc1,1.01,–
COc1cccc(CN2CCN(Cc3nc(-c4ccccc4)cs3)CC2CCO)c1 (stereo unspecified),1.1,–
COc1cccc(OCc2cc(C(=O)N3CCCCC3c3cccnc3)n[nH]2)c1 (stereo unspecified),0.904,–
COCCn1cc(C(=O)NCC2(c3ccccc3)CCCC2)c(=O)c(C(=O)N(C)C(C)C)c1,–,0.93
O=C1CCC(C(=O)N2CCC(CCc3ccccc3)CC2)CN1Cc1ccccn1 (stereo unspecified),0.932,–
COCc1noc(-c2ccc(NCCc3cscn3)nc2)n1,0.933,–
COc1ccc(C(=O)NC2CC2)c(OC2CCN(Cc3nc(C(C)C)cs3)CC2)c1,0.756,–
O=C(NCC1CCCO1)C1CCN(C2CCN(C(=O)/C=C/c3ccccc3)CC2)CC1 (stereo unspecified),0.741,–
Cc1ncc(CN2CCC(n3nccc3NC(=O)Cc3ccccc3)CC2)s1,0.866,–
CCC1CN(Cc2coc3ccccc3c2=O)Cc2cc(OC)ccc2O1 (stereo unspecified),–,0.677
Cc1ccccc1-c1cnc(-c2ccncc2)nc1C1CCCN(Cc2ccc(F)cc2)C1 (stereo unspecified),–,0.056
CCOC(=O)N1CCC(NC2CCN(c3ccc(C(=O)NCc4ccccc4F)cc3)CC2)CC1,–,0.864
O=C(NCCc1cscn1)c1cc(COc2cccc(F)c2)[nH]n1,0.992,–
COc1ccc(C(=O)NC2CC2)c(OC2CCN(Cc3cnc(SC)nc3)CC2)c1,0.974,–
CN(CCc1ccccn1)C(=O)c1cc(NC(=O)CC2CCCC2)cc2nc(C3CCCO3)n(C)c12 (stereo unspecified),–,0.814
COc1cccc(-c2ccc(NC(=O)C3CCCN(CC4CC4)C3)cc2)c1 (stereo unspecified),0.717,–

SMILES,bacterial growth OD600 (polymyxin B 1 µg/mL),bacterial growth OD600 (polymyxin B 0.75 µg/mL)
Cc1cc(C)n(CCNC(=O)C2CCC(=O)N(Cc3ccc(Cl)cc3)C2)n1 (stereo unspecified),0.932,–
O=C(NCc1cccc(Cl)c1)C1CCC(=O)N(C2CC2)C1 (stereo unspecified),0.865,–
CN(Cc1cc(C2CC2)[nH]n1)C(=O)c1cc(COc2cccc3cnccc23)on1,0.893,–
CCN(C)C(=O)C1CCCN(c2nc(-c3ccccc3)nc3c2CCC3)C1 (stereo unspecified),0.531,–
CC(C)(CO)NC(=O)c1ccc2nc(Cc3cccc(Cl)c3)oc2c1,0.847,–
O=C(c1cccc(F)c1F)N1CCOc2ccc(CN3CCN(c4ccccn4)CC3)cc2C1,–,0.817
CC(=O)NCCC(=O)N1CCCC1C(=O)Nc1cccc(-n2cccn2)c1 (stereo unspecified),1.05,–
COc1ccccc1CN1CCC(C(Cc2ccccc2F)N(C)C(=O)c2ccoc2C)CC1 (stereo unspecified),–,1.03
COc1ccc(OC2CCN(C3CCCC3)CC2)c(C(=O)NCCc2cscn2)c1,–,0.772
COc1cccc(OCc2nc(C(=O)N(C)Cc3cccnc3)co2)c1,0.851,–
Cc1occc1C(=O)N(C)C(Cc1ccccc1)C1CCN(C(=O)c2ccc3c(c2)no[n+]3[O-])CC1 (stereo unspecified),–,0.243
O=C(c1ccc(N2CCC[C@H]2CO)nc1)N1CCC(CCn2cccn2)CC1,–,0.916
COCCN1C(=O)CC(CC(=O)N2CCCC2c2nc3ccccc3s2)(c2ccccc2F)C1=O (stereo unspecified),–,0.813
CSCCCN1CCC(Oc2cc(Cl)ccc2C(=O)N2CCCCC2)CC1,–,0.793
COc1ccc(-c2nn(-c3ccccc3C)cc2CN2CCC[C@H]2CO)cc1F,–,0.705

# Full records from above:
# CC(=O)NCCC(=O)N1CCCC1C(=O)Nc1cccc(-n2cccn2)c1 (stereo unspecified) is listed as bacterial growth OD600 (polymyxin B 1 µg/mL): 1.05
# COCCN1C(=O)CC(CC(=O)N2CCCC2c2nc3ccccc3s2)(c2ccccc2F)C1=O (stereo unspecified) is listed as bacterial growth OD600 (polymyxin B 0.75 µg/mL): 0.813
